A short description of the data set: Isothermal titration calorimetry, affinity for sucrose octasulfate. The data set is classed as binding. The settings on record: ITC, 298K, pH 6.60, single-site model. (In general: In ITC the heat of successive injections is recorded.)

As for “WT*: Wild type (his-tagged) 140 amino acid form of human FGF-1, SEQ ID NO: 4 [reference compound]”, the “Stoichiometry (n)” value was found to be 1.22 ± 0.03 and the ΔH is -1.6 ± 0.072 kcal/mol.

B1: SYM6/ΔΔ: SYM6 FGF-1 mutant plus both Δ104-106 and Δ120-122 deletion mutations, SEQ ID NO: 1 (protein)
chain: FNLPPGNYKKPKLLYCSNGGHFLRILPDGTVDGTRDRSDQHIQFQLSAESVGEVYIKSTETGQYLAIDTDGLVYGSQTPNEECLFLERLEENHYNTYISKKHGWFLGIKKNGSVKGTHYGQKAILFLPLPVSSD
modifications: Human FGF-1 mutant SYM6DD
Turning to B1, the “Stoichiometry (n)” value was determined as 1.00 ± 0.09 and the ΔH was -2.13 ± 0.287 kcal/mol.

(Values after US7790682B1, “Engineered human acidic fibroblast growth factors and associated methods” (The Florida State University Research Foundation, Inc., priority 2003, dated 2010).)
